Where a name gives a salt, the structure may show the parent alone. Some of the results follow. Repeats in this data set agree poorly, so a single value says little.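 Human fetal ventral-midbrain neural progenitor line ReNCell VM, differentiated without mitogens. Images stained for doublecortin (early neurons) or tyrosine hydroxylase (dopaminergic neurons) were scored by blinded raters against untreated wells (0 = no change). Repeats and both raters were averaged, and compounds averaging 2 or higher were picked as hits for retesting.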

Our source for the neuronal differentiation score values is the supplement of paper PMC4635364.

The subject of the first test is ReNCell VM. Description: neuronal differentiation score (DCX+ cell fraction vs untreated, manual image score) (score (-3 to 3)); higher = more neuronal differentiation. The settings on record: library: LOPAC; 2 uM; 2 weeks.
`CN(N=O)c1cc(O)ccc1O` [Dephostatin]: the neuronal differentiation score is inactive: 0.
Consider `CC(C)N(CCC(C(N)=O)(c1ccccc1)c1ccccn1)C(C)C` (stereo not drawn) [Disopyramide phosphate], for which the neuronal differentiation score is inactive: 0.
Same read-out and setting: the same measure for `COc1ccc2[nH]c3c(c2c1)CCNC3` [6-Methoxy-1,2,3,4-tetrahydro-9H-pyrido[3,4b] indole]: inactive: 1; for `N=C(NCCC[C@H](N)C(=O)O)N[N+](=O)[O-]` [NG-Nitro-L-arginine]: inactive: 0; for `C=CCN1CC[C@]23c4c5ccc(O)c4O[C@H]2/C(=N/N=C2\CC[C@@]4(O)[C@H]6Cc7ccc(O)c8c7[C@@]4(CCN6CC=C)[C@H]2O8)CC[C@@]3(O)[C@H]1C5` [Naloxonazine dihydrochloride]: inactive: 0.
Take `CC(C)Oc1cccnc1N(C)C1CCN(Cc2ccc(I)cc2)CC1` [RBI 257 maleate salt]: the neuronal differentiation score was inactive: 0.

The test is the same for the next values; noted with them: library: Prestwick; 2 uM; 2 weeks.
For `CCC(C)C1O[C@]2(C=C[C@@H]1C)C[C@@H]1CC(C/C=C(\C)[C@@H](OC3C[C@H](OC)[C@@H](OC4C[C@H](OC)[C@@H](O)[C@H](C)O4)[C@H](C)O3)[C@@H](C)/C=C/C=C3\COC4[C@H](O)C(C)=CC(C(=O)O1)[C@]34O)O2` (stereo partly drawn) [Avermectin B1a], the neuronal differentiation score was inactive: 0.
Take `CC1OC(OC2/C=C/C=C/C=C/C=C/CC/C=C/C=C/[C@H](C)[C@@H](O)[C@@H](C)[C@H](C)OC(=O)CC(O)CC(O)CC(O)CCC(O)C(O)C[C@]3(O)CC(O)C(C(=O)O)C(C2)O3)C(O)C(N)C1O` (stereo partly drawn) [Nystatine]: the neuronal differentiation score is inactive: 0.
Still for that read-out and setting: the same measure for `OC(c1ccccc1)(c1ccccc1)C1CCNCC1` [Azacyclonol]: inactive: -1; for `CCC1(c2ccc(N)cc2)CCC(=O)NC1=O` (stereo not drawn) [Glutethimide, para-amino]: inactive: 0.
On the same count and under the same terms, the same measure for `O=C([O-])c1ccccc1-c1c2cc(Br)c(=O)cc-2oc2[c]([Hg+])c([O-])c(Br)cc12.[Na+].[Na+].[OH-]` [Merbromin]: inactive: -1; for `O=[N+]([O-])O[C@H]1CO[C@H]2[C@@H]1OC[C@H]2O[N+](=O)[O-]` [Isosorbide dinitrate]: inactive: 0.

Still in this test, the particulars now being: library: Spectrum; 2 uM; 2 weeks.
For the compound `CN1CCN(C(=O)O[C@H]2c3nccnc3C(=O)N2c2ccc(Cl)cn2)CC1`, the neuronal differentiation score is inactive: 0.
Take `CC(C)=CC1C(C(=O)OCc2cccc(Oc3ccccc3)c2)C1(C)C` (stereo not drawn): the neuronal differentiation score is inactive: 0.
Regarding `CC(N)C(O)c1ccccc1` (stereo not drawn), the neuronal differentiation score was inactive: 0.
Still for that read-out and setting: the same measure for `CN1[C@H]2C[C@H](OC(=O)[C@H](CO)c3ccccc3)C[C@@H]1[C@@H](O)C2`: inactive: 0; for `O=C1C2CC=CCC2C(=O)N1SC(Cl)(Cl)Cl` (stereo not drawn): inactive: 0; for `c1ccc2c(c1)Nc1ccccc1S2`: inactive: 0.
The same measure, in the same setting: the same measure for `CC(=O)O[C@H]1CC[C@@]2(C)[C@H](CC[C@@H]3[C@@H]2CC[C@]2(C)[C@@H](C4=CC(=O)OC4)[C@@H](OC(C)=O)C[C@]32O)C1`: inactive: 0; for `NCCc1ccc(O)cc1`: inactive: 0; for `CC(C)c1ccc2c(c1O)CC[C@H]1C3=C(CC[C@]21C)C(=O)OC3`: inactive: 0.
On the same count and under the same terms, for `CO[C@]12C[C@@H](COC(=O)c3cncc(Br)c3)CN(C)[C@@H]1Cc1cn(C)c3cccc2c13` the value was inactive: 0; for `CC(C)c1cccc(C(C)C)c1O`, inactive: 0.
For the compound `C[N+]12CCC(CC1)C(OC(=O)C(O)(c1ccccc1)c1ccccc1)C2` (stereo not drawn), the neuronal differentiation score is inactive: 0.
For `O=[N+]([O-])c1cc([As](=O)(O)O)ccc1O`, the neuronal differentiation score was inactive: 0.
On the same count and under the same terms, the same measure for `C/C=C(\C)C(=O)O[C@H]1C[C@@H](OC(C)=O)[C@@]2(C(=O)OC)CO[C@H]3[C@@H](O)[C@@](C)([C@]45O[C@@]4(C)[C@H]4C[C@@H]5O[C@@H]5OC=C[C@@]54O)[C@H]4[C@]1(CO[C@]4(O)C(=O)OC)[C@@H]32`: inactive: 0; for `CC[C@@H](C)C(=O)O[C@H]1[C@H](O)[C@H]2[C@@H](CN3C[C@@H](C)CC[C@H]3[C@@]2(C)O)[C@@H]2C[C@]34O[C@]5(O)[C@@H](OC(=O)[C@@](C)(O)CC)CC[C@@]3(C)[C@@H]5[C@@H](OC(C)=O)[C@@H](OC(C)=O)[C@H]4[C@@]21O`: inactive: 0; for `O=C(NC(=O)c1c(F)cccc1F)Nc1cc(Cl)c(OC(F)(F)C(F)C(F)(F)F)cc1Cl` (stereo not drawn): inactive: 0.
